Laboratory results published in publication PMC6827163.
The exact form of at least one protein or probe is not confirmed. Where cells or extracts were used, other partners may take part.

Sequences of proteins named here, by UniProt entry; tags and fusion partners are left off. A change or cut given only in a name is not applied to a line headed by its entry.
UniProt P17676: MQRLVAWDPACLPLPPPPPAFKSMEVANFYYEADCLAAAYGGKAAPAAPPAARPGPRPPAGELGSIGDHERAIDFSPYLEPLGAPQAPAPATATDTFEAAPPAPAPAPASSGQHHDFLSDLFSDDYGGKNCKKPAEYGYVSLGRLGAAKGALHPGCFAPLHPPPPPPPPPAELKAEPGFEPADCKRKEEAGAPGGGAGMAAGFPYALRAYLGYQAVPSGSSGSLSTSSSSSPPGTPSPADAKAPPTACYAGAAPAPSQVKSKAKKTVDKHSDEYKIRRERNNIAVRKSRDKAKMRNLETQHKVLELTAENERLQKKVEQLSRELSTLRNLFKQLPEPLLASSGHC

Biological target: CEBPB (endogenous, HEK-293 nuclear extract) (UniProt P17676)
Assay: EMSA supershift
Settings: 5 mM Mg2+, poly(dI.dC), CEBPB antibody, 20 uL: 20 fmol biotin probe, 8-9 ug nuclear protein, 1x binding buffer (Thermo LightShift kit; salt and pH not stated), 2.5% glycerol, 5 mM MgCl2, 50 ng/uL poly(dI.dC), protein in an extract, label: 5'-biotin

Does “ATTTCGTTCTCTCCCGGTTCCCCAACGTTAAAAAAAAAG (double strand) [HTR1A(-1235--1196) WT probe]” bind?
Result: binds
